Laboratory results from patent US8859611B2, “Thiophene inhibitors of S-nitrosoglutathione reductase” (N30 Pharmaceuticals, Inc., priority 2009, dated 2014).
Some entries share one result that the patent states for a list of compounds.

Protein sequences, listed by entry. Tags and fused reporters are not part of them. Lines headed by an entry give the natural chain unless they say otherwise; changes in a name come on top.
UniProt P11766: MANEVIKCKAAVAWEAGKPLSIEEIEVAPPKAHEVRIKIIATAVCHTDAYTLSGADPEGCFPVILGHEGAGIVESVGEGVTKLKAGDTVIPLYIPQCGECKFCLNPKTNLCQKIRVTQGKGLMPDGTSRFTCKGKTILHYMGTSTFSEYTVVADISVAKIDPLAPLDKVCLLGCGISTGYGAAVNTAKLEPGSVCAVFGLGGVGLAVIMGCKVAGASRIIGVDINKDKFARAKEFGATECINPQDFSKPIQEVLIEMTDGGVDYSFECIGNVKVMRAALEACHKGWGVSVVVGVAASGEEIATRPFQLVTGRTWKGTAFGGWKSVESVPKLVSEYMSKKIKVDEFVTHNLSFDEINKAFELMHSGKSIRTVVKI

biological target: T1, GSNOR (Homo sapiens, UniProt P11766); assay: GSNOR assay (in vitro inhibition of GSNOR activity, NADH absorbance at 340 nm); format: biochemical; details: 100 mM NaPO4 pH 7.4, 0.240 mM GSNO, 0.300 mM NADH, 0.5 μg/mL GSNO Reductase, 1% DMSO, 25° C.; read-out: IC50 (GSNOR inhibitor activity)
T1 construct: made in house; host or cells: E. coli (arabinose-induced)
Method: Various compounds were tested in vitro for their ability to inhibit GSNOR activity.
GSNOR expression and purification is described in Biochemistry 2000, 39, 10720-10729.
Pre-cultures were grown from stabs of a GSNOR glycerol stock in 2XYT media containing 100 ug/ml ampicillin after an overnight incubation at 37° C. Cells were then added to fresh 2XYT (4 L) containing ampicillin and grown to an OD (A600) of 0.6-0.9 at 37° C. before induction. GSNOR expression was induced with 0.1% arabinose in an overnight incubation at 20° C.
E. coli cell paste was lysed by nitrogen cavitation and the clarified lysate purified by Ni affinity chromatography on an AKTA FPLC (Amersham Pharmacia). The column was eluted in 20 mM Tris pH 8.0/250 mM NaCl with a 0-500 mM imidazole gradient. Eluted GSNOR fractions containing the Smt-GSNOR fusion were digested overnight with Ulp-1 at 4° C. to remove the affinity tag then re-run on the Ni column under the same conditions. GSNOR was recovered in the flowthrough fraction and for crystallography is further purified by Q-Sepharose and Heparin flowthrough chromatography in 20 mM Tris pH 8.0, 1 mM DTT, 10 uM ZnSO4.
GSNO and enzyme/NADH Solutions are made up fresh each day. The solutions are filtered and allowed to warm to room temperature. GSNO solution: 100 mM NaPO4 (pH 7.4), 0.480 mM GSNO. 396 μL of GSNO Solution is added to a cuvette followed by 8 μL of test compound in DMSO (or DMSO only for full reaction control) and mixed with the pipette tip. Compounds to be tested are made up at a stock concentration of 10 mM in 100% DMSO. 2 fold serial dilutions are done in 100% DMSO. 8 μL of each dilution are added to an assay so that the final concentration of DMSO in the assay is 1%. The concentrations of compounds tested range from 100 to 0.003 μM. Enzyme/NADH solution: 100 mM NaPO4 (pH 7.4), 0.600 mM NADH, 1.0 μg/mL GSNO Reductase. 396 μL of the Enzyme/NADH solution is added to the cuvette to start the reaction. The cuvette is placed in the Cary 3E UV/Visible Spectrophotometer and the change in 340 nm absorbance/min at 25° C. is recorded for 3 minutes. The assays are done in triplicate for each compound concentration. IC50's for each compound are calculated using the standard curve analysis in the Enzyme Kinetics Module of SigmaPlot.
Final assay conditions: 100 mM NaPO4, pH 7.4, 0.240 mM GSNO, 0.300 mM NADH, 0.5 μg/mL GSNO Reductase, and 1% DMSO. Final volume: 800 μL/cuvette.

Row | SMILES | IC50 [µM]
1 | COc1ccc(-c2csc(CCC(=O)O)c2-c2ccc(C(N)=O)cc2C)cc1 [Example 1, 3-(3-(4-carbamoyl-2-methylphenyl)-4-(4-methoxyphenyl)thiophen-2-yl)propanoic acid] | < 10
2 | COc1cc(Cl)ccc1-c1csc(CCC(=O)O)c1-c1ccc(C(N)=O)cc1 [Example 2, 3-(3-(4-carbamoylphenyl)-4-(4-chloro-2-methoxyphenyl)thiophen-2-yl)propanoic acid] | < 10
3 | COc1cc(Cl)ccc1-c1c(-c2ccc(O)cc2)csc1CCC(=O)O [Example 3, 3-(3-(4-chloro-2-methoxyphenyl)-4-(4-hydroxyphenyl)thiophen-2-yl)propanoic acid] | < 10
4 | COc1cc(Cl)ccc1-c1csc(CCC(=O)O)c1-c1ccc(O)cc1 [Example 4, 3-(4-(4-chloro-2-methoxyphenyl)-3-(4-hydroxyphenyl)thiophen-2-yl)propanoic acid] | < 10
5 | COc1cc(Cl)ccc1-c1csc(CCC(=O)O)c1-c1ccc(NS(C)(=O)=O)cc1 [Example 5, 3-(4-(4-chloro-2-methoxyphenyl)-3-(4-(methylsulfonamido)phenyl)thiophen-2-yl)propanoic acid] | < 10
6 | Cc1nccn1-c1ccc(-c2c(-c3ccc(C(N)=O)cc3)csc2CCC(=O)O)cc1 [Example 6, 3-(4-(4-carbamoylphenyl)-3-(4-(2-methyl-1H-imidazol-1-yl)phenyl)thiophen-2-yl)propanoic acid] | < 10
7 | Cc1cc(C(N)=O)ccc1-c1c(-c2ccc(-n3ccnc3C)cc2)csc1CCC(=O)O [Example 7, 3-(3-(4-carbamoyl-2-methylphenyl)-4-(4-(2-methyl-1H-imidazol-1-yl)phenyl)thiophen-2-yl)propanoic acid] | < 10
8 | Cc1nccn1-c1ccc(-c2csc(CCC(=O)O)c2-c2ccc(C(N)=O)cc2)cc1 [Example 8, 3-(3-(4-carbamoylphenyl)-4-(4-(2-methyl-1H-imidazol-1-yl)phenyl)thiophen-2-yl)propanoic acid] | < 10
9 | Cc1cc(NS(C)(=O)=O)ccc1-c1c(-c2ccc(-n3ccnc3C)cc2)csc1CCC(=O)O [Example 9, 3-(4-(4-(2-methyl-1H-imidazol-1-yl)phenyl)-3-(2-methyl-4-(methylsulfonamido)phenyl)thiophen-2-yl)propanoic acid] | < 10
10 | COc1cc(Cl)ccc1-c1csc(CCC(=O)O)c1-c1ccc(NS(C)(=O)=O)cc1C [Example 10, 3-(4-(4-chloro-2-methoxyphenyl)-3-(2-methyl-4-(methylsulfonamido)phenyl)thiophen-2-yl)propanoic acid] | < 10
11 | Cc1cc(C(N)=O)ccc1-c1c(-c2ccc(-n3ccnc3C)s2)csc1CCC(=O)O [Example 11, 3-(4′-(4-carbamoyl-2-methylphenyl)-5-(2-methyl-1H-imidazol-1-yl)-2,3′-bithiophen-5′-yl)propanoic acid] | < 10
12 | Cc1cc(NS(C)(=O)=O)ccc1-c1c(-c2ccc(-n3ccnc3C)s2)csc1CCC(=O)O [Example 12, 3-(5-(2-methyl-1H-imidazol-1-yl)-4′-(2-methyl-4-(methylsulfonamido)phenyl)-2,3′-bithiophen-5′-yl)propanoic acid] | < 10
13 | Cc1cc(C(N)=O)ccc1-c1c(-c2ccc(Br)cc2)csc1CCC(=O)O [Example 13, 3-(4-(4-bromophenyl)-3-(4-carbamoyl-2-methylphenyl)thiophen-2-yl)propanoic acid] | < 10
14 | COc1ccc(-c2scc(CCC(=O)O)c2-c2ccc(C(N)=O)cc2C)cc1 [Example 14, 3-(4-(4-carbamoyl-2-methylphenyl)-5-(4-methoxyphenyl)thiophen-3-yl)propanoic acid] | < 10
